PubChem BioAssay AID1259308, NCATS | 2017

Test: 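Genes whose loss raises luciferase production in HEK293 cells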 (primary screen)
Cells: human HEK293 embryonic kidney cells stably expressing firefly luciferase (HEK-CMV-Luc2-Hygro)
Knock-down reagent: single siRNA against human genes, 0.8 pmol siRNA per well
Duration: 72 h
Detection: 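Luciferase light (ONE-Glo) measured on one replicate plate set and viability (CellTiter-Glo) on the other, scaled to a negative control siRNA, with robust z-scores and luciferase per cell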
Direction: total luciferase, z-score and total luciferase, % of control: higher = more reporter protein produced
Hit rule: 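Active when the median/MAD z-score for overall luciferase is greater than 3; a gene was taken forward for validation with new siRNAs if at least two of its three siRNAs passed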
Meaning of the calls: active = raised luciferase; inactive = no rise
In all, the deposit lists about 59,000 reagents; this is a random part of them. Of all reagents, about 1,510 (2.6%) were called active. 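Calls use total luciferase alone and ignore viability, so some active siRNAs may act by altering cell number.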 The numbers tell different reagents against one gene apart. Further read-outs or replicates are left out here. Reagent sequences are not shown.

The first 3 records, ahead of the listing:
"total luciferase, z-score","total luciferase, % of control",Outcome,Gene,siRNA no.
-0.295,76,inactive,COBL (cordon-bleu WH2 repeat protein),1
-1.96,42.9,inactive,COBL (cordon-bleu WH2 repeat protein),2
-1.04,61.3,inactive,COBL (cordon-bleu WH2 repeat protein),3

The listing, from the first entry:
"total luciferase, z-score","total luciferase, % of control",Outcome,Gene,siRNA no.
-0.295,76,inactive,COBL (cordon-bleu WH2 repeat protein),1
-1.96,42.9,inactive,COBL (cordon-bleu WH2 repeat protein),2
-1.04,61.3,inactive,COBL (cordon-bleu WH2 repeat protein),3
0.52,92.2,inactive,DEFA6 (defensin alpha 6),1
0.543,92.7,inactive,DEFA6 (defensin alpha 6),2
0.388,89.6,inactive,DEFA6 (defensin alpha 6),3
-1.03,61.4,inactive,GTSF1L (gametocyte specific factor 1 like),1
1.28,107,inactive,GTSF1L (gametocyte specific factor 1 like),2
1.16,105,inactive,GTSF1L (gametocyte specific factor 1 like),3
-0.193,78,inactive,"ANKRD20A3P (ankyrin repeat domain 20 family member A3, pseudogene)",1
1.73,116,inactive,"ANKRD20A3P (ankyrin repeat domain 20 family member A3, pseudogene)",2
0.257,87,inactive,"ANKRD20A3P (ankyrin repeat domain 20 family member A3, pseudogene)",3
-2.87,24.8,inactive,EIF1AX (eukaryotic translation initiation factor 1A X-linked),1
-1.04,61.3,inactive,EIF1AX (eukaryotic translation initiation factor 1A X-linked),2
-1.73,47.5,inactive,EIF1AX (eukaryotic translation initiation factor 1A X-linked),3
-0.516,71.6,inactive,LAPTM4B (lysosomal protein transmembrane 4 beta),1
0.449,90.8,inactive,LAPTM4B (lysosomal protein transmembrane 4 beta),2
2.51,132,inactive,LAPTM4B (lysosomal protein transmembrane 4 beta),3
-0.49,72.1,inactive,ARMC3 (armadillo repeat containing 3),1
-0.606,69.8,inactive,ARMC3 (armadillo repeat containing 3),2
-0.562,70.7,inactive,ARMC3 (armadillo repeat containing 3),3
4.44,170,active,AK4P3 (adenylate kinase 4 pseudogene 3),1
-0.485,72.2,inactive,AK4P3 (adenylate kinase 4 pseudogene 3),2
0.565,93.1,inactive,AK4P3 (adenylate kinase 4 pseudogene 3),3
0.623,94.3,inactive,IL16 (interleukin 16),1
-0.708,67.8,inactive,IL16 (interleukin 16),2
-1.8,46,inactive,IL16 (interleukin 16),3
-0.147,79,inactive,SPINK4 (serine peptidase inhibitor Kazal type 4),1
-0.177,78.4,inactive,SPINK4 (serine peptidase inhibitor Kazal type 4),2
-0.0681,80.5,inactive,SPINK4 (serine peptidase inhibitor Kazal type 4),3
1.08,103,inactive,VSTM2L (V-set and transmembrane domain containing 2 like),1
0.406,90,inactive,VSTM2L (V-set and transmembrane domain containing 2 like),2
-1.01,61.7,inactive,VSTM2L (V-set and transmembrane domain containing 2 like),3
-0.197,78,inactive,TXNL4B (thioredoxin like 4B),1
1.97,121,inactive,TXNL4B (thioredoxin like 4B),2
1.32,108,inactive,TXNL4B (thioredoxin like 4B),3
0.643,94.7,inactive,SLC16A5,1
0.169,85.3,inactive,SLC16A5,2
0.0404,82.7,inactive,SLC16A5,3
